Columns and labels:
[1] = test system: DNA of HeLa cells; test: pH dependence of platinum incorporation into DNA (neutron activation); type: cell-based, Human; details: 16 hours
[2] = test system: HeLa cells; test: pH dependence of platinum incorporation, total cells (neutron activation); type: cell-based, Human; details: 4 hours

SMILES | Platinum content DNA ([1]; pH 6.8, 33 μM) [ng/mg] | Platinum content DNA ([1]; pH 7.4, 33 μM) [ng/mg] | Platinum content total cells ([2]; pH 6.8, 33 μM) [ng/10^7 cells] | Platinum content total cells ([2]; pH 7.4, 33 μM) [ng/10^7 cells]
CCOC1=[S+][Pt-2]2([S]1)[S]C(OCC)=[S+]2 [Example 1, bis-[O-ethyldithiocarbanato]Platinum (II)] | 13870 | 1760 | 4780 | 3680
N.N.[Cl][Pt][Cl] [cisplatin] | 14.6 | 140 | 140 | 156
